Source: PubChem BioAssay AID1259405 (NCATS, 2018)
The whole screen tested about 50,000 reagents; this is a random part of them. About 4,000 of all reagents (8%) were called active. 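Mouse siRNA library applied to hamster cells; one well for each siRNA.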 Reagents against one gene are numbered here.

Test: 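Silenced genes that increase secreted GFP made by CHO cells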 (primary screen)
Cell system: Chinese hamster CHO-K1 ovary cells with stable secreted eGFP expression
Reagents: single siRNA against mouse genes, 0.8 pmol siRNA per well (2 µl of 400 nM stock)
Timing: 3 days
Measured: 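Percent of the per-plate non-targeting control median for intracellular GFP per well by laser scanning cytometry and for cell viability by ATP luminescence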
Scale: GFP, % of control: higher = more GFP per well, higher productivity; viability (ATP), % of control: higher = more viable cells (more ATP)
Rule for the call: 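Called active when intracellular GFP, relative to negative control, is at or above 120%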

Silencing of Serpina11 #1 came out at: GFP, % of control 100; viability (ATP), % of control 99.8; inactive. Silencing of Serpina11 #2 resulted in: GFP, % of control 114; viability (ATP), % of control 99.5; inactive. Serpina11 #3 showed GFP, % of control 76.2; viability (ATP), % of control 84.8; inactive. Depletion of Hnrnph2 #1 resulted in: GFP, % of control 77.9; viability (ATP), % of control 59.7; inactive. Silencing of Hnrnph2 #2 gave: GFP, % of control 95.6; viability (ATP), % of control 54.6; inactive. After knock-down of Hnrnph2 #3, the record shows GFP, % of control 111; viability (ATP), % of control 97.6; inactive.

After knock-down of Mchr1 #1, the screen gave GFP, % of control 42.4; viability (ATP), % of control 27.9; inactive. Knock-down of Mchr1 #2 gave: GFP, % of control 73; viability (ATP), % of control 77.4; inactive. After knock-down of Mchr1 #3, the screen gave GFP, % of control 108; viability (ATP), % of control 82.7; inactive. Silencing of Pdgfa #1 gave: GFP, % of control 131; viability (ATP), % of control 102; active. Pdgfa #2 scored GFP, % of control 66.5; viability (ATP), % of control 63.1; inactive. For Pdgfa #3, the values are GFP, % of control 81.9; viability (ATP), % of control 70.6; inactive.

Against Lrrn1 #1 the deposit lists GFP, % of control 55.7; viability (ATP), % of control 81.2; inactive. For Lrrn1 #2 the deposit lists GFP, % of control 96.1; viability (ATP), % of control 90.6; inactive. Against Lrrn1 #3, the entry reads GFP, % of control 92.2; viability (ATP), % of control 89.6; inactive. After knock-down of Ermp1 #1, the screen gave GFP, % of control 95.5; viability (ATP), % of control 79.9; inactive. Silencing of Ermp1 #2 came out at: GFP, % of control 77.8; viability (ATP), % of control 85.7; inactive. After knock-down of Ermp1 #3 the results were GFP, % of control 60.7; viability (ATP), % of control 67.6; inactive.

Entries listed so far whose target name begins with L or l:
Lrrn1 #1: GFP, % of control = 55.7; viability (ATP), % of control = 81.2; call = inactive
Lrrn1 #2: GFP, % of control = 96.1; viability (ATP), % of control = 90.6; call = inactive
Lrrn1 #3: GFP, % of control = 92.2; viability (ATP), % of control = 89.6; call = inactive
